Drawing on PubChem BioAssay AID1117359 (Southern Research Institute, 2015), this text covers viability for one compound.

Several values for one entry are separate records, joined by “and”; a condition that tells them apart may be missing. Identical values can stand only once. The list shows a part of the results, in another mix than the full data. Entries with a potency or affinity are not part of this list. Activity calls are given as the source filed them.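 How the source made its calls: active means viability at or below 80% at any tested concentration, marking the compound as toxic; inactive means the rest.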

This experiment is described as follows: THP-1 cell cytotoxicity, dose response, cytotoxicity control for Vif-APOBEC3G degradation inhibitor project, THP-1 cells (AID 1117359). The following applies: THP-1 viability, CellTiter-Glo luminescence, 72 h; at 40 µM (top of the series). On the technique in general: ATP-based viability assays read luminescence as a measure of living cells.
Usually viability stands for a read-out of living cells in per cent, often relative to untreated cells. For `Cc1c2cc(O)c(=O)cc-2oc2cc(O)c(O)cc12`, the viability was inactive: 90.6% and inactive: 103%.
